# Laboratory results published in PubChem BioAssay AID1458 (National Center for Advancing Translational Sciences (NCATS), 2008).
# Out of some 210,000 compounds screened, about 5,900 (2.8%) were called active. Not shown: some 5% with an inconclusive outcome. Calls follow the shape of the dose curve; as a rule, active = well fitted activation curve with a large enough effect; inconclusive = small, poorly fitted or top-dose-only effect; inactive = no such curve, though single readings can be large or run the other way. This is a selection; strong and weak results do not stand in their true shares. The source gives no active or inactive call for entries shown without one.
# Assay: qHTS Assay for Enhancers of SMN2 Splice Variant Expression; also: nearly all actives have a fitted effect of over 55% in size; as to activity change, positive = activation: % of control where 0% means no effect
# Settings: HEK293 SMN2-luciferase splicing reporter, luminescence, 30-36 h; activity change, positive = activation: at 46.1 µM (top of the series) unless noted
# Excerpt: NIH Chemical Genomics Center [NCGC] NIH Molecular Libraries Probe Production centers Network [MLPCN] MLPCN Grant: R03 MH084179-01 Assay Submitter (PI): Elliot Androphy NCGC Assay Overview: Spinal muscular atrophy (SMA) is caused by insufficient levels of the survival motor neuron protein SMN. The SMN locus on chromosome 5q13 contains two inverted copies of SMN called SMN1 and SMN2 which are 99% identical at the amino acid level. SMN1 is a fully functional protein and SMN2 skips exon 7 90% of the time. Skipping of exon 7 produces non-functional protein product. 10% of the SMN2 protein includes exon 7 and is fully functional. In the SMA disease state, mutations in the SMN1 locus are the cause of the disease state. Because only 10% of SMN2 is of the fully functional form, it is not sufficient to overcome the deficiency produced by the loss of the SMN1 product. A therapy that either increase the amount of SMN2 product made or to increase the inclusion of exon 7 has been proposed for the treatment of SMA. We have designed an assay to identify small molecules that can increase the amount of functional SMN2 product by appending a luciferase reporter gene after the native SMN2 gene, such that inclusion of exon 7 in the expressed product places the luciferase sequence in frame, thus generating functional luciferase enzyme.
# NCGC Assay Protocol Summary: This screen utilizes a luciferase reporter gene assay, combining the promoter and splicing based cassettes in tandem with the major portion of the native SMN2 cDNA, and then transfected into HEK293 cells. Compounds that increase luciferase signal presumably enhance expression of the functional SMN2 splice variant. Passaging media contained DMEM w/ glutamax (+phenol red) 10% FCS, 1x pen/strep, 200 ug/ml hygro, 1x sodium pyruvate. Assay media contained DMEM w/ glutamax (-phenol red) 10% FCS, 1x pen strep, 1x pyruvate Sequence, Parameter, Value, Description (1) Cells, […], 2000 cells/well, 1536 TC treated White solid bottom plate (2) Time, 10-12 hours, 37C 5% CO2 (3) Compound, 23 nl, MLSMR Library (4) Control Compound, 23 nL, Sodium butyrate st 4.5mM (final) conc (5) Time, 30-36 hours, 37C 5% CO2 (6) Reagent, 3 ul, One Glo (TM) from Promega (7) Time, 5-15 minutes, Room temp (8) Detector, Viewlux: luminescent read, 60 second integration, high speed 2x binning Keywords: Spinal muscular atrophy, SMA, SMN2, high throughput screening, MLSMR, MLPCN, NIH Roadmap, qHTS and NCGC
# Potency is read from the fitted curve at half-maximal effect.
SMILES,"activity change, positive = activation",Potency
c1ccc(-c2nc(N3CCCCC3)nc3ccccc23)cc1,-55.8%,–
COc1cc(/C=C(\C#N)C(=O)N2CCOCC2)cc(Br)c1O,-41.9%,–
COC(=O)c1ccc(OCCN2C3=NCCN3c3ccccc32)cc1,57.7%,–
O=C(CSCc1cccs1)N1CCCC1,–,active: 12.6 µM
Cc1cc(=O)oc2c1ccc1oc(/C(=N/O)c3ccccc3)c(C)c12,-52%,–
Cc1nc(-c2ccccc2)sc1-c1ccnn1C,–,active: 12.6 µM
CC(C)NC(=O)c1nc2ccccc2s1,41.7%,–
COc1cccc(C(=O)/C=C/Nc2cc(C)ccc2O)c1,30.3%,–
Oc1ccccc1C(=S)N1CCCCCC1,36.8%,–
COc1ccc(C(=O)NCC(C)(C)SCc2c(C)cc(C)cc2C)cc1,-31%,–
CC1=CCC2([N+](=O)[O-])CN(CC(=O)O)CC1([N+](=O)[O-])C2 (centres undefined),-17.3%,–
CCCc1nc([N+](=O)[O-])c(S(=O)(=O)c2ccccc2)n1CC(C)C,inactive: -46.4%,–
CC(=O)N(C)c1ccc(OCC(O)Cn2c3ccc(Cl)cc3c3cc(Cl)ccc32)cc1 (centres undefined),inactive: -128%,–
Fc1cccc(Cl)c1-c1nnc2ccc3ccccc3n12,inactive: -51.4%,–
COc1ccc(-c2nc3ccccc3s2)cc1NC(=O)COc1ccc(C)cc1,–,active: 1.26 µM
COc1ccc(S(=O)(=O)Nc2ccc(C)cc2)cc1N(C)S(=O)(=O)c1ccc(Cl)cc1,-48%,–
CCC(Sc1nc2ccccc2[nH]1)C(=O)Nc1cc(C)on1 (centres undefined),31.2%,–
O=C(NCc1ccco1)c1cc2c(s1)CCCCC2,–,active: 14.1 µM
CC1(C(=O)NCCN2CCOCC2)C=CCN1C(=O)c1ccccc1 (centres undefined),76.9%,–
CC(=O)Cc1nsc(Nc2ccc3c(c2)OCCO3)n1,–,active: 12.6 µM
CCn1c(C2CCN(S(=O)(=O)c3ccc(OC)cc3)CC2)n[nH]c1=S,-32.4%,–
CN(C)CC(C(=O)c1ccccc1)c1ccccc1 (centres undefined),inactive: -94.4%,–
Cc1cccc(NS(=O)(=O)c2ccc(Br)s2)n1,32.6%,–
Cc1ccc(Nc2c(-c3c[nH]c4ccccc34)nc3cc(C)ccn23)cc1,–,active: 14.1 µM
O=C(Nc1ccc(N2CCN(C(=O)c3ccccc3)CC2)c(Cl)c1)c1cccnc1,-35%,–
CCOc1ccc(C2C(C(=O)O)CCC(=O)N2C2CCCCC2)cc1 (centres undefined),inactive: 5.94%,–
Cc1ccc2nc(-c3ccc(NC(=O)CNC4CC4)cc3)sc2c1,–,active: 2.24 µM

# Five of these compounds in a different format.
SMILES | activity change, positive = activation | Potency
Cc1cc(=O)oc2c1ccc1oc(/C(=N/O)c3ccccc3)c(C)c12 | -52% | –
CC1=CCC2([N+](=O)[O-])CN(CC(=O)O)CC1([N+](=O)[O-])C2 (centres undefined) | -17.3% | –
COc1ccc(-c2nc3ccccc3s2)cc1NC(=O)COc1ccc(C)cc1 | – | active: 1.26 µM
COc1ccc(S(=O)(=O)Nc2ccc(C)cc2)cc1N(C)S(=O)(=O)c1ccc(Cl)cc1 | -48% | –
CCn1c(C2CCN(S(=O)(=O)c3ccc(OC)cc3)CC2)n[nH]c1=S | -32.4% | –

# Next part:

SMILES,"activity change, positive = activation",Potency
CC(=O)NCC1=C(NC(C)=O)C2CC1C(C)(C)C2C (centres undefined),31.5%,–
COc1ccc(CC(=O)Nc2cccc(-c3nnc(-c4ccccc4)o3)c2)cc1OC,inactive: -120%,–
COc1ccc(NC(=S)NC(=O)c2ccccc2Cl)cc1,30.7%,–
Cc1ccc(S(=O)(=O)Nc2nc(C)c(C(=O)N/N=C/c3ccccc3)s2)cc1,inactive: -37.5%,–
CN1C(=O)/C(=C2/C=Cc3ccccc3N2CCCS(=O)(=O)O)SC1=S,-36%,–
CCc1nnc(NS(=O)(=O)c2ccc(N/C=C\C(=O)c3ccc(C)cc3)cc2)s1,inactive: 23.1%,–
Cc1cccc2c1NC(=O)/C2=C\C(=O)c1cccs1,inactive: -32.9%,–
CCCOC(=O)c1cccc(Nc2nc(-c3cccnc3)nc3ccccc23)c1,inactive: -79%,–
CCOC(=O)c1ccc(NS(=O)(=O)c2ccc3c(c2)CCCN3C(C)=O)cc1,-87.1%,–
CC1CCN(C(=O)Cn2cnc3c(cnn3C(C)(C)C)c2=O)CC1,–,active: 15.8 µM
O=C(C1CCCN(S(=O)(=O)c2cccs2)C1)N1CCc2ccccc2C1 (centres undefined),-39.1%,–
O=C(NCc1ccc(N2CCCC2=O)cc1)Nc1cccc(Cl)c1,-59.2%,–
CCOc1ccc(OCc2cccc(C(=O)O)c2)cc1,–,active: 0.0316 µM
COc1ccc(/C=C2\SC(=O)N(CCNC(=O)C3CC4C=CC3C4)C2=O)cc1 (centres undefined),–,active: 25.1 µM
CCN1CCN(CC(O)COc2ccc(Cl)cc2)CC1 (centres undefined),18.7%,–
CC1(C)CNC(=O)c2sc(NC(=O)CN3CCOCC3)nc2C1,12.8%,–
CCOC(=O)C1=C(C)NC2=C(C(=O)CC(C)(C)C2)C1c1ccc2c(c1)CCCN2C (centres undefined),49.6%,–
Cc1ccc(S(=O)(=O)c2nc(NC3CCS(=O)(=O)C3)sc2Cl)cc1 (centres undefined),-81.7%,–
COc1c(C)cccc1C(=O)Nc1ccc(CN2CCOCC2)cc1,–,active: 15.8 µM
COC(=O)COc1cc2ccccc2cc1C(=O)Nc1ccccc1,inactive: -31.3%,–
NC(=O)c1ccccc1NC(=O)Nc1cccc2ccccc12,inactive: -20.3%,–
COCCCn1c(C)nnc1-c1cnn(-c2ccccc2)c1N,35.9%,–
COc1ccccc1N1CCN(C(=O)C2CC=CCC2C(=O)O)CC1 (centres undefined),38.3%,–
Cc1ccc(S(=O)(=O)NC(C(=O)Oc2ccc3c(C(F)(F)F)cc(=O)oc3c2)c2ccccc2)cc1 (centres undefined),-53.1%,–
CC1=C(C(=O)Nc2ccccc2)C(c2ccncc2)C(C#N)=C(SCC(=O)NC(C)C)N1 (centres undefined),51.8%,–
C(=N\Nc1nc2ccccc2[nH]1)/c1ccccn1,-81.9%,–
CC(=O)c1cccc(OCC(=O)c2cc(C)n(-c3cc(C)on3)c2C)c1,inactive: -47%,–
